Results as given in PubChem BioAssay AID540303 (National Center for Advancing Translational Sciences (NCATS), 2011).
About 1,000 (0.3%) of roughly 330,000 compounds were called active. This list was built around the results that the source calls inconclusive (neither active nor inactive); the mix of calls is not that of the screen. Calls follow the shape of the dose curve; as a rule, active = well fitted inhibition curve with a large enough effect; inconclusive = small, poorly fitted or top-dose-only effect; inactive = no such curve, though single readings can be large or run the other way; tested in mouse RAW 264.7 cells. Potencies of inconclusive entries are doubtful fits and often do not repeat.

Assay: qHTS for Inhibitors of Cell Surface uPA Generation; also: nearly all actives have a fitted effect of over 55% in size
Conditions: cell surface uPA generation assay; series mostly up to 38.3 µM; activity change, negative = inhibition: at the top concentration
In short: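 Murine RAW 264.7 cells are treated for 24 h with compound up to 38.3 uM final. Cell ATP, measured by ATP-Lite, remains high if blocking the uPA cascade prevents LF from reaching the cytoplasm.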
% is scaled to controls: 0 for no effect and ±100 for the full control effect; potency is read from the fitted curve at half-maximal effect.

| SMILES | Potency | activity change, negative = inhibition |
| --- | --- | --- |
| Cc1ccc(C(=O)COC(=O)c2cccc(O)c2)s1 | inconclusive: 3.98 µM [inhibitor, partial curve, poor fit] |  |
| Cc1cc2occ(CC(=O)N(C)CC(=O)Nc3ccccc3C(F)(F)F)c2cc1C |  | inactive: 4.41% |
| O=S(=O)(c1ccc2ccccc2c1)N1CCN(c2ccc(O)cc2)CC1 | inconclusive: 5.01 µM [inhibitor, partial curve, poor fit] |  |
| CCN(C[C@H]1N[C@@](CC)(C(=O)OC)[C@H]2C(=O)N(C)C(=O)[C@@H]12)S(=O)(=O)c1ccc(C)cc1 | inconclusive: 5.01 µM [inhibitor, single point] |  |
| CC(C(=O)NCC(=O)Nc1ccc(F)c(F)c1F)N1CCN(c2ccc(O)cc2)CC1 (stereo unspecified) | inconclusive: 8.91 µM [inhibitor, partial curve, poor fit] |  |
| COc1ccc2oc(C(=O)OCC(=O)N3CCC(C)CC3)c(C)c2c1 |  | inactive: -4.98% |
| O=C(C1=C[C@@H](c2csc3ccccc23)C[C@@H](OCc2ccc(CO)cc2)O1)N1CCN(Cc2ccccc2)CC1 | inconclusive: 10 µM [inhibitor, single point] |  |
| CC1=CC(C)(C)n2c(O)c(C3=NC(=S)NC3=O)c3cc(OC(=O)c4cccc5ccccc45)cc1c32 |  | inactive: 2.69% |
| CCn1c(CNc2cccc(C(F)(F)F)c2)n[nH]c1=S |  | inactive: 0.129% |
| O=C(CCCN1C(=O)/C(=C/c2ccccc2Cl)SC1=S)Nc1cccnc1 | inconclusive: 10 µM [inhibitor, partial curve, poor fit] |  |
| Cc1ccc(CN(CC(=O)NCc2ccccn2)S(=O)(=O)c2ccccc2)cc1 | inconclusive: 1.12 µM [inhibitor, partial curve, poor fit] |  |
| CCOCCCn1c(=NC(=O)c2ccco2)c(C(=O)OCC)cc2c(=O)n3cccc(C)c3nc21 | inconclusive: 1.12 µM [inhibitor, full curve] |  |
| CCOc1ccc(-c2c(C(=O)N/N=C/c3cccs3)nnn2-c2nonc2N)cc1 |  | inactive: 3.08% |
| Cc1ccc(C(=O)OCC(=O)NC2CCCC2)cc1 |  | inactive: 10.3% |
| C(=N\Nc1cc(N2CCCCC2)ncn1)/c1ccco1 | inconclusive: 12.6 µM [inhibitor, single point] |  |
| CCN(CC)CCNC(=S)Nc1ccc2nc(N3CCN(CC)CC3)cc(C)c2c1 |  | inactive: 1.87% |
| N#Cc1c(SCC(=O)Nc2nc3ccccc3s2)sc2c(O)cc(=O)[nH]c12 | inconclusive: 12.6 µM [inhibitor, single point] |  |
| CC(C)(CNC(=O)c1cc([N+](=O)[O-])ccc1N1CCC(Cc2ccccc2)CC1)N1CCOCC1 | inconclusive: 28.2 µM [inhibitor, partial curve, poor fit] |  |
| CC(/C=N/NC(=O)c1ccccc1F)=C\c1ccccc1 | inconclusive: 14.1 µM [inhibitor, partial curve, poor fit] |  |
| COC/C=C/C1=CC2=CC(=O)C(C)(OC(=O)c3cnc4ccccc4n3)C(=O)C2=CN1Cc1ccccc1 (stereo unspecified) | inconclusive: 8.91 µM [inhibitor, single point] |  |
| N#Cc1ccccc1NC(=O)CN1C(=O)NC(Cc2c[nH]c3ccccc23)C1=O (stereo unspecified) | inconclusive: 0.891 µM [inhibitor, full curve, poor fit] |  |

| SMILES | Potency | activity change, negative = inhibition |
| --- | --- | --- |
| CCOC(=O)CNC(=O)c1c(C)nn(C)c1Cl |  | inactive: -3.77% |
| COc1cc(NC(=O)CSc2ncnc3scc(-c4ccccc4)c23)c(C(=O)O)cc1OC | inconclusive: 1 µM [inhibitor, partial curve, poor fit] |  |
| O=C(O)c1ccc(N/N=C/c2c(F)cccc2Cl)cc1 |  | inactive: 1.98% |
| Cc1cccc(-c2noc(CN(C(=O)c3c(-c4ccccc4Cl)noc3C)C(C)C)n2)c1 | inconclusive: 28.2 µM [inhibitor, single point] |  |
| CC(=O)Oc1ccc(C#C/C=C2\c3ccccc3C(=O)N2c2ccccc2)cc1 | inconclusive: 28.2 µM [inhibitor, single point] |  |
| CCc1ccn2cc(-c3cc(-c4ccccc4)no3)nc2c1 | inconclusive: 1 µM [inhibitor, full curve, poor fit] |  |
| Cn1c(/C=C/c2ccc(Cl)cc2Cl)c([N+](=O)[O-])c(=O)n(C)c1=O | inconclusive: 1 µM [inhibitor, full curve, poor fit] |  |
| Cc1ccccc1NC(=O)c1c([N+](=O)[O-])cnn1C | inconclusive: 0.02 µM [inhibitor, full curve, poor fit] |  |
| CC(C)(C)OC(=O)N(Cc1ccccc1)Cc1cccc(OCc2cccc(NC(=O)C3CC3)c2)c1 | inconclusive: 28.2 µM [inhibitor, single point] |  |
| COc1ccc(-c2ccc(OC)c([C@H]3[C@H]4C=CC[C@@H](C)[C@@H]4C(=O)N3Cc3ccccc3)c2)cc1 | inconclusive: 11.2 µM [inhibitor, single point] |  |
| CCOC(=O)c1c(NC(=O)CSc2nnc(-c3c[nH]c4ccccc34)n2CCOC)sc2c1CCCC2 | inconclusive: 7.94 µM [inhibitor, single point] |  |
| Cc1c(C(=O)N2CCN(c3ncccn3)CC2)sc2nc3n(c(=O)c12)CCCC3 |  | inactive: -0.678% |
| CN(C)CCNC(=O)/C(=C/c1ccc(-c2ccc(Cl)cc2Cl)o1)NC(=O)c1ccccc1 |  | inactive: 7.5% |
| O=C(CN1CCN(c2ccc(O)cc2)CC1)NCC(=O)Nc1ccc(F)c(F)c1F | inconclusive: 11.2 µM [inhibitor, single point] |  |
| Nc1ccc(-c2nc3cc(N)ccc3n2CCO)cc1 |  | inactive: 2.85% |
| C/C(=C\c1ccccc1)C(=O)Nc1ccc(Cl)cn1 | inconclusive: 11.2 µM [inhibitor, single point] |  |
| Cn1cc(Cl)c(C(=O)N/N=C/c2ccc3c4c(cccc24)CC3)n1 | inconclusive: 5.01 µM [inhibitor, partial curve, poor fit] |  |
| CCOC(=O)Cn1ccc(NC(=O)c2ccc3c(c2)OCO3)n1 | inconclusive: 10 µM [inhibitor, single point] |  |
| O=C(N[C@@H]1CCC(=O)N(CC[C@H](Sc2ccc(Br)cc2)c2ccccc2)CC1)OCc1ccccc1 |  | inactive: 8.36% |
| CCN(Cc1ccccc1)S(=O)(=O)c1ccc(C(=O)Nc2nnc(C3CC3)o2)cc1 | active: 3.55 µM |  |

Arranged by formula weight (largest number first): 3 of the compounds above

| SMILES | Potency | activity change, negative = inhibition |
| --- | --- | --- |
| Cc1cccc(-c2noc(CN(C(=O)c3c(-c4ccccc4Cl)noc3C)C(C)C)n2)c1 | inconclusive: 28.2 µM [inhibitor, single point] |  |
| CC(=O)Oc1ccc(C#C/C=C2\c3ccccc3C(=O)N2c2ccccc2)cc1 | inconclusive: 28.2 µM [inhibitor, single point] |  |
| CCc1ccn2cc(-c3cc(-c4ccccc4)no3)nc2c1 | inconclusive: 1 µM [inhibitor, full curve, poor fit] |  |
